From patent US11447486B2, “2-amino-benzimidazole derivatives and their use as 5-lipoxygenase and/or prostaglandin E synthase inhibitors” (INSTITUT PASTEUR KOREA, priority 2014, dated 2022)
The match of structure and compound is tentative.

Sequences of proteins named here, by UniProt entry; tags and fusion partners are left off.
UniProt P09917, whole entry: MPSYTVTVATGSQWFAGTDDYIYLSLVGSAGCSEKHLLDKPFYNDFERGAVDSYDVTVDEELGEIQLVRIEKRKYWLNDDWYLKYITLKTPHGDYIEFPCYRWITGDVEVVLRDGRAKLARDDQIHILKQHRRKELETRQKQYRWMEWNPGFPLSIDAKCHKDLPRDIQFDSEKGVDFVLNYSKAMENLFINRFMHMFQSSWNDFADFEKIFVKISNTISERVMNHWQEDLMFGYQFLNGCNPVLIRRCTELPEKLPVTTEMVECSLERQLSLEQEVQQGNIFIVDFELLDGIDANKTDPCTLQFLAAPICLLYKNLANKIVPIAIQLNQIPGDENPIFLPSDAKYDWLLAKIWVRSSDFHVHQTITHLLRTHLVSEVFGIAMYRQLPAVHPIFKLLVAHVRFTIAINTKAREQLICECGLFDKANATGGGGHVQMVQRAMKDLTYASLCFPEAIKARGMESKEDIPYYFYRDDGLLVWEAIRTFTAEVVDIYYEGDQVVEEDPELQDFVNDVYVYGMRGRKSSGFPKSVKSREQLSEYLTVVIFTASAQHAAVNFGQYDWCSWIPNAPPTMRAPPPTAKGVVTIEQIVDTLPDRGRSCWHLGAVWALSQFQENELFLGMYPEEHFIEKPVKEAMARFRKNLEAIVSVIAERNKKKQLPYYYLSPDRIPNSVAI

Columns and labels:
[1] = molecular target: human 5-LOX (Homo sapiens, UniProt P09917); experiment: 5-LOX enzyme activity, fluorescence method (5-HPETE, H2DCFDA); conditions: read-out: 5-LO (IC50)
[2] = tested on: Rat basophilic leukemia (RBL) cells; experiment: LTB4 secretion assay in RBL (rat basophilic leukemia cells); conditions: read-out: RBL (EC50)
Protocol: Rat basophilic leukemia (RBL) cells (ATCC, Cat #CRL-2256) were maintained in EMEM (ATCC, Cat #30-2003) supplemented with 15% FBS. The day before RBL assay, cells were seeded at a concentration of 2×10^4 cells per well in 96-well plates. The media was replaced with 100 ul of EMEM supplemented with 0.5% FBS and compounds in dose response(5 nM to 100 uM) were added. After 15 min of pre-incubation at 37° C., arachidonic acid and calcium ionophore (A23187) were added to give a final concentration of 2.5 uM and 5 uM, respectively. After a further 10 min incubation at 37° C., culture supernatant was transferred and quantification of LTB4 was done with a Leukotriene B4 EIA kit (Cayman, Cat #520111) as instructed.

Row | IC50 [1] [µM] | EC50 [2] [µM] | Compound
1 | < 1 | < 10 | Cn1c(NCc2ccc(Oc3ccc4c(Cl)cccc4n3)cc2)nc2ccc(N)cc21 [Compound 424]
2 | < 1 | > 20 | Cn1c(NCc2ccc(Oc3ncc(Cl)cn3)cc2)nc2ccc(N)cc21 [Compound 288]
